Data: article PMC8126888 (RSC Medicinal Chemistry, 2020)

Each compound was assayed on Leishmania infantum MHOM/MA(BE)/67/ITMAP263 intracellular amastigotes. Conditions: selectivity index vs PMM.
For `COCCNc1ccc(S(=O)(=O)N(CCOC)Cc2ccccc2)cc1` [DNDI0003366102], the “SI (vs PMM)” value was 2. In the case of `COc1ccc(OC)c(S(=O)(=O)N(Cc2ccccc2)C2CCCNC2)c1` (stereo not shown) [DNDI0003366131], the “SI (vs PMM)” value is reported as 2. `COc1ccc(OC)c(S(=O)(=O)N(Cc2ccccc2)C2CCN(C(C)=O)CC2)c1` [DNDI0003366132] was tested, and the “SI (vs PMM)” value was 1. `COc1ccc(C(N)=O)cc1S(=O)(=O)N(Cc1ccccc1)Cc1ccccc1` [DNDI0003366135] was tested, and the “SI (vs PMM)” value was 9. In the case of `COc1ccc(C#N)cc1S(=O)(=O)N(Cc1ccccc1)Cc1ccccc1` [DNDI0003366138], the “SI (vs PMM)” value is reported as 147. With `CN(C)CCN(Cc1ccccc1)S(=O)(=O)c1ccccc1S(C)(=O)=O` [DNDI0003367255] the “SI (vs PMM)” value was 1. In the case of `CN(C)CCN(Cc1ccccc1)S(=O)(=O)c1ccccc1OC(F)(F)F` [DNDI0003367256], the “SI (vs PMM)” value is reported as 5. `COc1ccc(OC)c(S(=O)(=O)N(Cc2ccccc2)C2CCCN(C(C)=O)C2)c1` (stereo not shown) [DNDI0003367307] was tested, and the “SI (vs PMM)” value was 1. In the case of `COc1ccc(OC)c(S(=O)(=O)N(CCn2nc(C)cc2C)Cc2ccccc2)c1` [DNDI0003367308], the “SI (vs PMM)” value is reported as 10. For `COc1ccc(S(=O)(=O)N(Cc2ccccc2)Cc2ccccc2)cc1` [DNDI0003367309], the “SI (vs PMM)” value was 1. In the case of `COc1ccc(C(=O)O)cc1S(=O)(=O)N(Cc1ccccc1)Cc1ccccc1` [DNDI0003368287], the “SI (vs PMM)” value is reported as 1. In the case of `O=S(=O)(c1cc(F)ccc1F)N(CCO)Cc1ccccc1` [DNDI0003368289], the “SI (vs PMM)” value is reported as 1. In the case of `CN(C)CCN(Cc1ccccc1)S(=O)(=O)c1ccc(N)cc1` [DNDI0003368290], the “SI (vs PMM)” value is reported as 1. For `CN(C)CCN(Cc1ccccc1)S(=O)(=O)c1ccc(N2C(=O)CCC2=O)cc1` [DNDI0003368291], the “SI (vs PMM)” value was 1. For `O=S1(=O)c2cc(F)ccc2OCCN1Cc1ccccc1` [DNDI0003368292], the “SI (vs PMM)” value was 1. `CN(C)CCN(Cc1ccccc1)S(=O)(=O)c1ccc(NC(=O)CCCO)cc1` [DNDI0003368293] was tested, and the “SI (vs PMM)” value was 1. In the case of `COc1ccc(OC)c(S(=O)(=O)N(CCN2CCOCC2)Cc2ccccc2)c1` [DNDI0003368294], the “SI (vs PMM)” value is reported as 7. With `COc1ccc(OC)c(S(=O)(=O)N(Cc2ccc(F)cc2)Cc2nc(C)no2)c1` [DNDI0003368295] the “SI (vs PMM)” value was 8. For `COc1ccc(C(=O)N2CCOCC2)cc1S(=O)(=O)N(Cc1ccccc1)Cc1ccccc1` [DNDI0003368296], the “SI (vs PMM)” value was 99. With `COc1ccc(C(=O)N2CCCC2)cc1S(=O)(=O)N(Cc1ccccc1)Cc1ccccc1` [DNDI0003368297] the “SI (vs PMM)” value was 66. `CNC(=O)c1ccc(OC)c(S(=O)(=O)N(Cc2ccccc2)Cc2ccccc2)c1` [DNDI0003368298] was tested, and the “SI (vs PMM)” value was 72. In the case of `COc1ncccc1S(=O)(=O)N(Cc1ccccc1)Cc1ccccc1` [DNDI0003368299], the “SI (vs PMM)” value is reported as 100. `COc1ccc(OC)c(S(=O)(=O)N(Cc2ccc(F)cc2)Cc2ccccn2)c1` [DNDI0003368394] was tested, and the “SI (vs PMM)” value was 66. With `COCCN(Cc1ccc(F)cc1)S(=O)(=O)c1cc(C#N)ccc1OC` [DNDI0003368395] the “SI (vs PMM)” value was 7. With `CCCCOc1ncccc1S(=O)(=O)NCc1ccc(F)cc1` [DNDI0003368396] the “SI (vs PMM)” value was 7. With `O=S(=O)(NC(CO)Cc1ccccc1)c1cc(F)ccc1F` (stereo not shown) [DNDI0003368459] the “SI (vs PMM)” value was 1. With `O=S1(=O)NC(Cc2ccccc2)COc2ccc(F)cc21` (stereo not shown) [DNDI0003368460] the “SI (vs PMM)” value was 1. `COC(=O)C(Cc1ccccc1)NS(=O)(=O)c1ccccc1Br` (stereo not shown) [DNDI0003369003] was tested, and the “SI (vs PMM)” value was 1. For `COC(=O)[C@H](CO)NS(=O)(=O)c1cc(Cl)ccc1OC` [DNDI0003369004], the “SI (vs PMM)” value was 1. With `CCOCCOc1ncccc1S(=O)(=O)NCc1ccc(F)cc1` [DNDI0003369119] the “SI (vs PMM)” value was 2. For `O=S(=O)(NCc1ccc(F)cc1)c1cccnc1OCc1ccccc1` [DNDI0003369120], the “SI (vs PMM)” value was 4. For `O=S(=O)(NCc1ccc(F)cc1)c1cccnc1NCCN1CCOCC1` [DNDI0003369121], the “SI (vs PMM)” value was 1. For `COc1ncc(Br)cc1S(=O)(=O)N(Cc1ccc(F)cc1)Cc1ccc(F)cc1` [DNDI0003369122], the “SI (vs PMM)” value was 4. With `COc1ncc(C#N)cc1S(=O)(=O)N(Cc1ccc(F)cc1)Cc1ccc(F)cc1` [DNDI0003369123] the “SI (vs PMM)” value was 8.
